Measured values from article PMC10224958, “Cryo-EM structure of the Saccharomyces cerevisiae Rpd3L histone deacetylase complex” (Nature Communications, 2023).
Results are given in words; binding and its absence hold for the method and conditions named. Some binding calls cover weakened binding; strength is not graded here. Tags and fused reporters may be left off the sequences shown.

How the values were obtained:
[1] = target: T1, His6-tagged mouse SDS3 (residues 43-234) (mouse) (UniProt Q8BR65); assay: SEC; Ni-NTA purified proteins on a Superdex 75 GL column in 25 mM MOPS pH 7.5, 150 mM NaCl, 1 mM TCEP; co-elution; both purified
T1 sequence: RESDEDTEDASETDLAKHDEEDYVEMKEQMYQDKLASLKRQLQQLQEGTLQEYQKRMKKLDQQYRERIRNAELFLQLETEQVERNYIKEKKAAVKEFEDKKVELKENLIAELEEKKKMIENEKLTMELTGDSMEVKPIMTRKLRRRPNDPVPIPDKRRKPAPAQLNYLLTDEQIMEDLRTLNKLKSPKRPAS

[2] = target: T2, His6-tagged human ING2 SAID domain (residues 18-131) (human) (UniProt Q9H160); assay: as above
T2 sequence: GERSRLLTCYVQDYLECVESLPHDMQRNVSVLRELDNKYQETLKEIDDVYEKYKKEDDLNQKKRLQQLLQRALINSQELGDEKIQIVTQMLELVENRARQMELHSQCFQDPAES

B1: maltose-binding protein (MBP)-tagged human BRMS1 (residues 51-179) (domain or fragment, UniProt Q9HCU9 51-179)
chain: EDYERRRSECVSEMLDLEKQFSELKEKLFRERLSQLRLRLEEVGAERAPEYTEPLGGLQRSLKIRIQVAGIYKGFCLDVIRNKYECELQGAKQHLESEKLLLYDTLQGELQERIQRLEEDRQSLDLSSE
binding [1]: binds

B2: MBP-tagged human SAP130 (residues 924-1048) (domain or fragment, UniProt Q9H0E3 924-1048)
chain: EEKKAMLQEIANQKGVSCRAQGWKVHLCAAQLLQLTNLEHDVYERLTNLQEGIIPKKKAATDDDLHRINELIQGNMQRCKLVMDQISEARDSMLKVLDHKDRVLKLLNKNGTVKKVSKLKRKEKV
binding [2]: binds
